Patent US20260234270A1, “METHODS FOR TREATING CONDITIONS USING ANTI-NMDA RECEPTOR ANTIBODIES” (Lankenau Institute for Medical Research, priority 2022, published 2026)
These are yes or no findings as the source states them, for the method shown. Some binding calls cover weakened binding; strength is not graded here.

B1: 2G6 chimeric recombinant antibody (antibody, V domains shown)
VH: QVQLQESGGGVVQPGRSLRLSCAASGFSFNAFAMHWVRQAPGKGLEWVARISHYGSDDYYADSVKGRFTISRDNSQNTLFLQMNSLKAEDTGVYYCWRGFTLVRGVISRNPINRFSGMDVWGQGTTVTVSS
VL: SYELMQPPSVSVSPGQTARITCSGDALPKKYAYWYQQKSGQAPILVIYEDNKRPSGIPERFSGSSSGTMATLTISGAQVEDEADYFCYSTDSSGNHGVFGGGTKLTVLG
B2: 1D1 chimeric recombinant antibody (antibody, V domains shown, not shown: a dimerising Fc or GST; small tags and cut ends; large carriers)
VH: LVQLVESGGGVVQSGRSLRLSCAASGFAFHTFTIHWVRQAPGKGLDWVTAIYFDGTKKYYADSVKGRFTVSRDNSKNTVYLQMNGLRGEDTAVYYCARARYSYGLSFDYWGQGTPVTVSS
VL: QSVVTQPPSVSAAPGQKVTISCSASSSYLGSNYVSWYQQLPGTAPKLLIYDNNKRSSGISDRFSGSKSGTSATLDITGLQTGDEADYYCGAWDSSLSVVVFGGGTKLTVL
B3: 5F5 chimeric recombinant antibody (antibody, V domains shown)
VH: QVQLVESGGGVVRPGGSLRLSCAASGFTFSTYSLHWVRQAPGKGLEWVGVILYDGSKKYYADSVRGRFTISRDNSKSTLNLDMSSLRPDDTAVYYCARDPIAVAPRPSGMVPQGFDYWGQGTLVTVSS
VL: QSVVTQPPSASGTPGQRVTISCSGSSSNIGRNFVFWYRQLPGTAPKVLIYKNIQRPSGVPDRISGSRSGSSASLAISGLRSEDEADYYCASWDDSLSGVVFGGGTKLTVLG

Legend:
[1] = biological target: NMDAR GluN1 antigen in mouse retina (mouse) (UniProt P35438); test: immunofluorescence imaging of mouse retina
[2] = biological target: NMDAR GluN1 antigen in mouse retina (mouse) (UniProt P35438); test: immunofluorescence of mouse retina, retinitis pigmentosa model
[3] = biological target: NMDAR GluN1 antigen in mouse retina (mouse) (UniProt P35438); test: immunofluorescence of mouse retina, oxygen induced retinopathy model

Row | Binder | binding [1] | binding [2] | binding [3]
1 | B1 | binds | binds | binds
2 | B2 | binds | – | binds
3 | B3 | binds | binds | binds
